Reference: patent publication EP0438519B1 (The Administrators of The Tulane Educational Fund, priority 1988, dated 1998)

Test: general procedure: Boc solid-phase peptide synthesis; Benzhydrylamine-polystyrene resin; diisopropylcarbodiimide (hydroxybenzotriazole for Gln, D-Phe)
Conditions: whole synthesis, scale 0.5 mmole

Substance | isolated mass
D-Phe-Gln-Trp-Ala-Val-Gly-His-Leuψ[CH2NH]-D-Phe-NH2 | 120 mg
D-Phe-Gln-Trp-Ala-Val-Gly- His-Leuψ[CH2NH]-D-Phe-NH2 | 120 mg
